Taken from: PubChem BioAssay AID504774 (Drosophila RNAi Screening Center, 2011)

Screen: 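Genes required for cells to withstand methyl methanesulphonate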 (primary screen)
Cell system: Drosophila Kc167 cells
Knock-down reagent: long dsRNA against Drosophila genes, about 0.25 µg dsRNA per well
Timing: about 6 days: 3 days knock-down, then 3 days with or without MMS
Challenge: methyl methanesulphonate 0.004% (w/v) for 3 days after knock-down
Read-out: 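ATP-dependent luminescence as a measure of live cells in MMS-exposed wells, quantile normalised within each plate, with replicate values also given as a mean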
Direction: mean viability with MMS and viability with MMS: higher = more surviving cells after MMS
The screen tested about 23,000 reagents; this is an unselected part of those with a known target gene and a result. 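Values are quantile-normalised luminescence on an arbitrary scale; higher means more cells surviving MMS.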 Reagents against one gene are numbered here. Names joined by + are all predicted targets of the reagent. No sequences are given here.

gene knocked down	reagent no.	mean viability with MMS	viability with MMS, replicate 1	viability with MMS, replicate 2
CG18823	1	3.53e6	3.99e6	4.03e6
CG30479	1	3.71e6	4.49e6	4.06e6
BEAF-32 (Boundary element-associated factor of 32kD)	1	3.59e6	4.07e6	4.08e6
Vha100-1 (Vacuolar H[+] ATPase 100kD subunit 1)	1	3.64e6	4.11e6	4.12e6
D2hgdh (D-2-hydroxyglutaric acid dehydrogenase)	1	3.49e6	4.03e6	3.89e6
PIP82	1	3.78e6	4.26e6	4.34e6
CG7544	1	2.02e6	4.13e6	4.21e6
Nepl17 (Neprilysin-like 17)	1	3.62e6	4.10e6	4.09e6
CG7691	1	3.66e6	4.25e6	4.04e6
CG8135 + BBIP1	1	3.50e6	4.00e6	3.96e6
CG8135 + BBIP1	2	3.70e6	4.18e6	4.07e6
AP-2mu (Adaptor Protein complex 2, mu subunit)	1	3.65e6	4.07e6	4.16e6
CG13365	1	3.67e6	4.10e6	4.20e6
Rcd-1r + CG13102	1	3.65e6	4.26e6	4.02e6
CG30289	1	3.42e6	3.94e6	3.85e6
osp (outspread)	1	3.61e6	3.95e6	4.20e6
osp (outspread)	2	3.44e6	3.80e6	3.95e6
CG31157	1	3.39e6	3.87e6	3.89e6
AANATL4 (Arylalkylamine N-acetyltransferase-like 4)	1	3.54e6	4.02e6	4.00e6
CG17233	1	3.33e6	3.73e6	3.77e6
Atg7 (Autophagy-related 7)	1	3.49e6	4.04e6	3.88e6
Atg7 (Autophagy-related 7)	2	3.72e6	4.32e6	4.08e6
CG14573	1	3.49e6	3.95e6	3.94e6
Rab9Db + Rab9D + Rab9Fa + 1 more	1	3.47e6	3.99e6	3.90e6
Atet (ABC transporter expressed in trachea)	1	3.33e6	3.91e6	3.55e6
Hsc70-2 (Heat shock protein 70 cognate 2)	1	3.55e6	3.98e6	4.08e6
Fum2 (Fumarase 2)	1	3.54e6	4.01e6	4.03e6
CG17258	1	3.51e6	4.07e6	3.88e6
CG17258	2	3.60e6	4.00e6	4.12e6
CG13110	1	3.63e6	4.06e6	3.93e6
Dlish (Dachs ligand with SH3s)	1	3.58e6	4.20e6	3.91e6
ninaE (neither inactivation nor afterpotential E)	1	3.57e6	4.04e6	4.05e6
CG18764	1	3.44e6	3.88e6	3.97e6
CG13594	1	3.44e6	3.89e6	3.89e6
CG13594	2	3.27e6	3.58e6	3.81e6
CG11892	1	3.47e6	3.90e6	3.97e6
prtp (pretaporter)	1	3.21e6	4.18e6	4.05e6
prtp (pretaporter)	2	3.60e6	4.03e6	4.09e6
CG13717 (retired record)	1	1.87e6	4.03e6	4.05e6
CG13717 (retired record)	2	3.62e6	4.02e6	4.20e6
CG13717 (retired record)	3	3.24e6	3.58e6	3.63e6
CG13717 (retired record)	4	3.70e6	4.25e6	4.08e6
CG13717 (retired record)	5	3.33e6	3.73e6	3.86e6
Abca3 (ATP binding cassette subfamily A member 3)	1	3.54e6	4.07e6	3.96e6
Ccdc58 + CG34116	1	3.54e6	4.06e6	3.95e6

Continued (3 carried over from the part before).
gene knocked down	reagent no.	mean viability with MMS	viability with MMS, replicate 1	viability with MMS, replicate 2
CG13717 (retired record)	5	3.33e6	3.73e6	3.86e6
Abca3 (ATP binding cassette subfamily A member 3)	1	3.54e6	4.07e6	3.96e6
Ccdc58 + CG34116	1	3.54e6	4.06e6	3.95e6
RpL21 (Ribosomal protein L21)	1	2.98e6	3.60e6	3.63e6
CG7366	1	1.96e6	4.19e6	4.02e6
CG7164	1	3.44e6	3.96e6	3.81e6
Drep2 (DNA fragmentation factor-related protein 2)	1	3.68e6	4.20e6	4.14e6
CG18234	1	3.63e6	4.16e6	4.05e6
CG5902	1	3.49e6	3.96e6	3.96e6
CG31556 (retired record)	1	3.48e6	3.80e6	4.10e6
CG31556 (retired record)	2	3.75e6	4.14e6	4.27e6
Dpy-30L1 (Dpy-30-like 1)	1	3.43e6	3.88e6	3.87e6
CG11570	1	3.69e6	4.05e6	4.25e6
tyn (trynity)	1	3.60e6	4.12e6	4.02e6
CG34297	1	3.64e6	4.00e6	4.21e6
Klp59C (Kinesin-like protein at 59C)	1	3.55e6	4.19e6	3.87e6
mTerf3 (mitochondrial transcription termination factor 3)	1	3.66e6	4.17e6	4.10e6
nkt (noktochor)	1	3.75e6	4.14e6	4.29e6
pira (pirate)	1	3.52e6	4.05e6	3.93e6
alpha4GT2 (alpha1,4-galactosyltransferase 2)	1	3.83e6	4.47e6	4.18e6
CG10931	1	3.50e6	3.82e6	4.12e6
SLO2 (slowpoke 2)	1	2.92e6	3.59e6	3.61e6
SLO2 (slowpoke 2)	2	3.70e6	4.15e6	4.12e6
SLO2 (slowpoke 2)	3	3.49e6	4.00e6	3.94e6
SLO2 (slowpoke 2)	4	3.54e6	4.05e6	3.97e6
SLO2 (slowpoke 2)	5	2.99e6	3.63e6	3.64e6
SLO2 (slowpoke 2)	6	3.28e6	3.87e6	3.56e6
CG6607	1	3.42e6	3.80e6	3.90e6
CG31344	1	3.58e6	4.02e6	4.12e6
MED6 (Mediator complex subunit 6)	1	3.35e6	3.75e6	3.81e6
CG18210 (retired record)	1	3.82e6	4.19e6	4.30e6
CG18210 (retired record)	2	2.88e6	3.99e6	2.81e6
Drat (Death resistor Adh domain containing target)	1	3.50e6	3.83e6	4.07e6
ATPsynCF6L (ATP synthase, coupling factor 6-like)	1	3.63e6	4.15e6	4.11e6
CG32606 (retired record)	1	2.61e6	3.49e6	3.49e6
CG32606 (retired record)	2	3.62e6	4.07e6	4.13e6
CG32606 (retired record)	3	3.54e6	3.95e6	4.09e6
CG32606 (retired record)	4	3.64e6	4.06e6	4.16e6
CG32606 (retired record)	5	3.43e6	4.04e6	3.77e6
Kaz1-ORFB + Kaz1-ORFA	1	3.74e6	4.27e6	4.08e6
CG1545	1	3.53e6	4.05e6	3.98e6
beat-Ib (beaten path Ib)	1	3.61e6	3.99e6	4.19e6
Ntmt (N-terminal methyltransferase)	1	3.43e6	3.86e6	3.92e6
Cp18 (Chorion protein 18)	1	3.54e6	4.04e6	4.00e6
CG13599	1	3.57e6	4.18e6	3.92e6
